Results on 37 targets are retold here after the supplement of paper PMC6411743.

The chains behind the UniProt entries cited, without tags or fusion partners. Where a name states a change or a piece, a line headed by the entry shows the natural chain unless it says otherwise.
UniProt Q9UEU0: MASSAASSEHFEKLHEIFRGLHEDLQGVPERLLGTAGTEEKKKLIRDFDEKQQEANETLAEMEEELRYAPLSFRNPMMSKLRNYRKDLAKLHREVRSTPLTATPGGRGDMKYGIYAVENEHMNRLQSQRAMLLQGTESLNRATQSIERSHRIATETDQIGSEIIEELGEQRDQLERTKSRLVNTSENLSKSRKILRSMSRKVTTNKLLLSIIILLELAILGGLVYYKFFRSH
UniProt Q9Y2R4: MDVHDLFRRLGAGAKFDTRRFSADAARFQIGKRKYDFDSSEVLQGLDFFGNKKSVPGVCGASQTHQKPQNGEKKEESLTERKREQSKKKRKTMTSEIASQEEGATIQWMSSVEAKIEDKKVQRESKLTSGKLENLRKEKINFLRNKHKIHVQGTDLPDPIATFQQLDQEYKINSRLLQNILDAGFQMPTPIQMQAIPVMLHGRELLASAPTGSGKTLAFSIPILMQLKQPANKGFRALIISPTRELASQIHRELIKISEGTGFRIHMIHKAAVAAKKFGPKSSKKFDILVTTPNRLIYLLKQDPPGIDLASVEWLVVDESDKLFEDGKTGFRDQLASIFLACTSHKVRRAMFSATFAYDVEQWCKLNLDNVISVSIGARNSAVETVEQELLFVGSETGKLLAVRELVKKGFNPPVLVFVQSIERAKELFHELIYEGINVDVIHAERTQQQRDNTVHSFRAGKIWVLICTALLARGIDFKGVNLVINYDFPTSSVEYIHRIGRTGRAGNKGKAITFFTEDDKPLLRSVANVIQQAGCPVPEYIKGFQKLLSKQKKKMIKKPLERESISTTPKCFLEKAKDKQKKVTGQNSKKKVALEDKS
UniProt Q9UI10, whole entry: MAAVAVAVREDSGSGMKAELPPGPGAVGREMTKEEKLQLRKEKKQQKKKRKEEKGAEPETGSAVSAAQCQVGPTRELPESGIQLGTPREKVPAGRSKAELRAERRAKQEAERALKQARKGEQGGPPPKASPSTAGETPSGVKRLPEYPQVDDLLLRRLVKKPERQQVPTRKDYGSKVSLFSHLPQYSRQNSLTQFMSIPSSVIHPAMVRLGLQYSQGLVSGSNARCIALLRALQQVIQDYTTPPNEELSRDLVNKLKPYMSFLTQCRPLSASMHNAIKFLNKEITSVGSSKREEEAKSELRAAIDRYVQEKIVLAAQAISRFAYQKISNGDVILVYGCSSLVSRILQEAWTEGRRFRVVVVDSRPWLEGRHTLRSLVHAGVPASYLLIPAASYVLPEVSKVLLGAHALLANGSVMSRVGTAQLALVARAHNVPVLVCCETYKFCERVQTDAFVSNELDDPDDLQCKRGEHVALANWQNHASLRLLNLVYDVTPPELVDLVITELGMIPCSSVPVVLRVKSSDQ
UniProt Q9ULK4: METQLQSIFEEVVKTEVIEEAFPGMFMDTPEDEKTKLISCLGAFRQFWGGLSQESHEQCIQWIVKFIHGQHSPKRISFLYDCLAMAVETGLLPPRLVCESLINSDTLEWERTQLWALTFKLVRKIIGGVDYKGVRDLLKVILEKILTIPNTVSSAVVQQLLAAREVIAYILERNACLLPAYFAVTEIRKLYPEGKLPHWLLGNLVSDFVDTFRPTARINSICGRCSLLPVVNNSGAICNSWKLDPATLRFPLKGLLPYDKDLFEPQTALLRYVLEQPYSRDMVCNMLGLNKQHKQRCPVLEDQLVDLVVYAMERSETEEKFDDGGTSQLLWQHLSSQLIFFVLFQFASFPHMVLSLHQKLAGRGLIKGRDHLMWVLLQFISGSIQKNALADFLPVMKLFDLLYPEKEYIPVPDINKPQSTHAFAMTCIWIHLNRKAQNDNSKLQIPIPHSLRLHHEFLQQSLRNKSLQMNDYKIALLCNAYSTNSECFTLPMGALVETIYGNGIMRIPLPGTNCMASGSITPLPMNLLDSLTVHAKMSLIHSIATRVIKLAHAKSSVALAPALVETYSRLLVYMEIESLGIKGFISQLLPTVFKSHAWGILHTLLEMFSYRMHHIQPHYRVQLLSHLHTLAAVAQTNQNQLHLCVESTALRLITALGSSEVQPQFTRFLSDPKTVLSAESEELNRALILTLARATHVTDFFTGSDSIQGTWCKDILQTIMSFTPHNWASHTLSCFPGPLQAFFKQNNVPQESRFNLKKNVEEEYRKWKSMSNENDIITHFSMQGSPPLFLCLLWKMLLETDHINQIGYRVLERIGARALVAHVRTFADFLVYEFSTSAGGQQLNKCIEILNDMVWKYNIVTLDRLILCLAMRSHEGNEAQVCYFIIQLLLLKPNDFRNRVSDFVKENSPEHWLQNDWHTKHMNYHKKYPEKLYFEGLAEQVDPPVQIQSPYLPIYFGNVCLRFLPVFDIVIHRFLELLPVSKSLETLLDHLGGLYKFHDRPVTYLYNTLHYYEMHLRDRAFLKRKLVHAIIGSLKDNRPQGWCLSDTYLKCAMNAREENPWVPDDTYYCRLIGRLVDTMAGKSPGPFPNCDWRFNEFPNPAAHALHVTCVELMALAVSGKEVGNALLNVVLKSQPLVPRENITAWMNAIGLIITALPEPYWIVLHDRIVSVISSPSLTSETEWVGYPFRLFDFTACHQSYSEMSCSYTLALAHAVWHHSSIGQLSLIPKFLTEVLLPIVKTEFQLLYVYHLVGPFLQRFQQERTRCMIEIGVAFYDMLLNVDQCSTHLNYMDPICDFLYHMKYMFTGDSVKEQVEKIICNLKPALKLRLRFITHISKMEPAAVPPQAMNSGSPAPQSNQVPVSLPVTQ
UniProt Q9Y2A7: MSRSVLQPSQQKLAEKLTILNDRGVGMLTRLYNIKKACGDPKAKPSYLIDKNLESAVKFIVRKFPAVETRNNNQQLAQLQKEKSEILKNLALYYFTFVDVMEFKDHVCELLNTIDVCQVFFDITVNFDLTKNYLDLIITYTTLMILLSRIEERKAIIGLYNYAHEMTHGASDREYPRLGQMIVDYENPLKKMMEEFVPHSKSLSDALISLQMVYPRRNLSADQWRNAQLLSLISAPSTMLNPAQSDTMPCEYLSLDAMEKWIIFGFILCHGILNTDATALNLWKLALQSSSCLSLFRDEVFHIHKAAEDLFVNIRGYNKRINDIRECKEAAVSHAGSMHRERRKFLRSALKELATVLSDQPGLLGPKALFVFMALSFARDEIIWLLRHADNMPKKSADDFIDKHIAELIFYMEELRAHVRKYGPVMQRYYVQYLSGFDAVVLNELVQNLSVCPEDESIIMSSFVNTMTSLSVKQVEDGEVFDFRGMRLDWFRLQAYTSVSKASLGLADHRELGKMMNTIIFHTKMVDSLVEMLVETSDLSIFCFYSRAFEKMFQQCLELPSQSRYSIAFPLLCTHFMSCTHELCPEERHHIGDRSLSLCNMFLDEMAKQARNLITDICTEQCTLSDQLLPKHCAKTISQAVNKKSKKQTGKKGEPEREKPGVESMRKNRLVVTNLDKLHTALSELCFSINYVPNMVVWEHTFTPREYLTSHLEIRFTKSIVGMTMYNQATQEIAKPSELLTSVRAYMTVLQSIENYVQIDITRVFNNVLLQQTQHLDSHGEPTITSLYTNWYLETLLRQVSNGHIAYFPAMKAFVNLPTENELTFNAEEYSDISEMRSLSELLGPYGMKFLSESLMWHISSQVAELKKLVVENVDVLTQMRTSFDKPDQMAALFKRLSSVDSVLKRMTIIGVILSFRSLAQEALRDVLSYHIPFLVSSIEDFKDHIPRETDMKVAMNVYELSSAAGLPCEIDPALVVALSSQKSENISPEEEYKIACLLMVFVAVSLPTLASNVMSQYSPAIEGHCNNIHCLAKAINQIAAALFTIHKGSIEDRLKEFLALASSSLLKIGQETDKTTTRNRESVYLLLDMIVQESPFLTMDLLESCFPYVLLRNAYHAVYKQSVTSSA
UniProt Q9ULH0: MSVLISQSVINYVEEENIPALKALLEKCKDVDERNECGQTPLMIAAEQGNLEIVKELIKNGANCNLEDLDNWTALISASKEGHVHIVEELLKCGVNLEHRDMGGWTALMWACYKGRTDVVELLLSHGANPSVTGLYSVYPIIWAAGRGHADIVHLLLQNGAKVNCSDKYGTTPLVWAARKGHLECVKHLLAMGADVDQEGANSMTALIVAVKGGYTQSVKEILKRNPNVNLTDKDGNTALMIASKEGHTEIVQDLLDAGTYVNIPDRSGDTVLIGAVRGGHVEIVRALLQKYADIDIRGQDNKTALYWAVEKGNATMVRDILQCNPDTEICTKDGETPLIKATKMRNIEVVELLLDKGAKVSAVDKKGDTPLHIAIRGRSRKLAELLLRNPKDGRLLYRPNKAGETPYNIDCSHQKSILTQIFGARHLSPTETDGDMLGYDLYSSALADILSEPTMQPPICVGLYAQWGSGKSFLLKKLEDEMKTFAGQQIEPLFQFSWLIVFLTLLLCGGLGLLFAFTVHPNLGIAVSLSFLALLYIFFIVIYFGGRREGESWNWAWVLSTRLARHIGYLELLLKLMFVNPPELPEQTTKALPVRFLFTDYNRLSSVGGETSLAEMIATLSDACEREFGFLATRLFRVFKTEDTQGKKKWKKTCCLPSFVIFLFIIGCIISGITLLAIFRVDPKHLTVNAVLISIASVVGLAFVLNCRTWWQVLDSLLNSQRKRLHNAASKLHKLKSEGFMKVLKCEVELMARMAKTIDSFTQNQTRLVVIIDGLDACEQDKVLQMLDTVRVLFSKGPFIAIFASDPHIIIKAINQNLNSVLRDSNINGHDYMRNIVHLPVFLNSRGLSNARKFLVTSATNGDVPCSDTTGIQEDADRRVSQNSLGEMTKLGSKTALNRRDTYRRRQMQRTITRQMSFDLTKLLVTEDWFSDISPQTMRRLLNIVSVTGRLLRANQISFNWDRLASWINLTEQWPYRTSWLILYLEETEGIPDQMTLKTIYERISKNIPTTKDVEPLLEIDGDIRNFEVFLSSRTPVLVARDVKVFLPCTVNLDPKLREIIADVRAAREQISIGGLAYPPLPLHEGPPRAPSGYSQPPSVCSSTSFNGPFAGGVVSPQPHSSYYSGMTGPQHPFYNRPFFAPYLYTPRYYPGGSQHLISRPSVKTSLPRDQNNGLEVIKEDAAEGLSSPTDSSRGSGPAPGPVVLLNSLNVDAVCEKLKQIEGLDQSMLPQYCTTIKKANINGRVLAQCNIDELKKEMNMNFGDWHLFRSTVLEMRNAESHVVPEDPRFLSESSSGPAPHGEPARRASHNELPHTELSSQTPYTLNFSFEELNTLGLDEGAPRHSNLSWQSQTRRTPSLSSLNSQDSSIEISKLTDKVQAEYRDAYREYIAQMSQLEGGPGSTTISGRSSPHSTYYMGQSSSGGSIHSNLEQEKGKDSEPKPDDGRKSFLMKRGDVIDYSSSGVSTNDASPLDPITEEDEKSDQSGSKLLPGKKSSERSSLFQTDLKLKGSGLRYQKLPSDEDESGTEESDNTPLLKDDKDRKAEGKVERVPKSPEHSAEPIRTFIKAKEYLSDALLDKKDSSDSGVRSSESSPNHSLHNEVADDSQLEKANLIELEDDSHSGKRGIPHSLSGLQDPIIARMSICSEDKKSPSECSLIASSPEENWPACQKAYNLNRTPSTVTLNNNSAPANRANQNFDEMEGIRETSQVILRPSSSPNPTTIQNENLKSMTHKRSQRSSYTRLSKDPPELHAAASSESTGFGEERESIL
UniProt Q9Y316: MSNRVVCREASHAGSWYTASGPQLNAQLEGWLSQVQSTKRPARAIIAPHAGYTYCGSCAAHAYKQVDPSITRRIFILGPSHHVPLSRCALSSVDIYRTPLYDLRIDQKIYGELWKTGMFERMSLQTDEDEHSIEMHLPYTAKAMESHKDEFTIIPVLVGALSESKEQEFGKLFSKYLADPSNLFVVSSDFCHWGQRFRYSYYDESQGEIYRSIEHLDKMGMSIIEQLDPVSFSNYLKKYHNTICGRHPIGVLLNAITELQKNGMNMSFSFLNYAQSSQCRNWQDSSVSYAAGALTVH
UniProt Q9UHD8: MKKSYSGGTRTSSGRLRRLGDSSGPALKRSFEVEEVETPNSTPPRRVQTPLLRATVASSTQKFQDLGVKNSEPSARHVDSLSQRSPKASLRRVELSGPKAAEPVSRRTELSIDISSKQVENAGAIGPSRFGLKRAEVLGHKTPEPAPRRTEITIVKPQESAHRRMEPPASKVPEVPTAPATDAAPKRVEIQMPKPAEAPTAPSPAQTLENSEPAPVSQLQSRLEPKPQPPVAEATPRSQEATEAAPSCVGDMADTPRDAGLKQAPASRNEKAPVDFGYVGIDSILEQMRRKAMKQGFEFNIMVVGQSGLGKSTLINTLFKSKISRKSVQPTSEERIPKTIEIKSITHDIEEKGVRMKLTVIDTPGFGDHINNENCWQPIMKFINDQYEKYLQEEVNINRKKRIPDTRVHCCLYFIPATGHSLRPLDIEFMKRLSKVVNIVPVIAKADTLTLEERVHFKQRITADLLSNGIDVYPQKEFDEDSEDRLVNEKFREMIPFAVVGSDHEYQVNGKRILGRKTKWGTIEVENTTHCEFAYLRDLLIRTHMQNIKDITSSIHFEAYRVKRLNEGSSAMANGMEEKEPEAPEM

± gives the standard deviation of the averaged measurements. The list shows a part of the results, in another mix than the full data. Most entries show no effect beyond the scatter of the controls.

Compound in the experiment: Nc1ncnc2c1ncn2[C@@H]1O[C@H](COP(=O)(O)OP(=O)(O)NP(=O)(O)O)[C@@H](O)[C@H]1O [adenylyl imidodiphosphate]
Kind of experiment: NP40-soluble protein abundance relative to vehicle (solubility fold change) (ratio); higher = more soluble protein in presence of AMP-PNP. Conditions: concentration: 0.1mM. A digest of the protocol: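 In three independent experiments, Jurkat crude lysate made by Dounce homogenisation was treated for 10 min at room temperature and then 3 min at 37 °C with eight concentrations ranging from 0.1 to 10 mM. It was then solubilised with 0.8% NP40 plus benzonase for 60 min at 4 °C and ultracentrifuged. The supernatant was TMT-labelled for LC-MS/MS, and each value is the fold change against the detergent-processed vehicle for the same replicate, using vsn-normalised intensities.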
As for CGGBP1 (UniProt Q9UFW8), the NP40-soluble protein abundance came to 0.9905 ± 0.0032.

In the case of VTI1B (UniProt Q9UEU0), the NP40-soluble protein abundance came to 1 ± 0.029.

Turning to UniProt Q9UJY4 and related entries, the NP40-soluble protein abundance amounted to 0.997 ± 0.019.

For UniProt Q9UJU6 and related entries, the NP40-soluble protein abundance amounted to 1.08 ± 0.066.

Turning to FAM8A1 (UniProt Q9UBU6), the NP40-soluble protein abundance turned out to be 0.956 ± 0.029.

As for UniProt Q9UPZ3 and related entries, the NP40-soluble protein abundance came out at 0.992 ± 0.02.

As for DDX52 (UniProt Q9Y2R4), the NP40-soluble protein abundance stood at 1.05 ± 0.069.

TTF2 (UniProt Q9UNY4): the NP40-soluble protein abundance was found to be 1.01 ± 0.019.

In the case of GSTK1 (UniProt Q9Y2Q3), the NP40-soluble protein abundance came out at 1.04 ± 0.02.

As to USP20 (UniProt Q9Y2K6), the NP40-soluble protein abundance came out at 1 ± 0.028.

With PACSIN3 (UniProt Q9UKS6), the NP40-soluble protein abundance was determined as 1 ± 0.032.

For the target “UniProt Q9UK53-2|A0A0C4DFW2|Q9UK53 and related entries”, the NP40-soluble protein abundance amounted to 1.03 ± 0.065.

Turning to ARMCX3 (UniProt Q9UH62), the NP40-soluble protein abundance turned out to be 1.01 ± 0.028.

On to UniProt Q9UI10 and related entries, for which the NP40-soluble protein abundance was found to be 1.01 ± 0.0074.

With UniProt Q9ULK4 and related entries, the NP40-soluble protein abundance was 1.02 ± 0.044.

For the target “UniProt Q9UPQ9-1|Q9UPQ9 and related entries”, the NP40-soluble protein abundance was 0.975 ± 0.025.

As for CHORDC1 (UniProt Q9UHD1), the NP40-soluble protein abundance was 0.973 ± 0.016.

As for UniProt Q9Y2A7 and related entries, the NP40-soluble protein abundance worked out at 0.9746 ± 0.009.

Consider COPS3 (UniProt Q9UNS2), for which the NP40-soluble protein abundance is 1.02 ± 0.034.

Regarding UniProt Q9ULH0 and related entries, the NP40-soluble protein abundance stood at 1.02 ± 0.021.

Turning to UniProt Q9Y316 and related entries, the NP40-soluble protein abundance stood at 1.04 ± 0.074.

For CDC23 (UniProt Q9UJX2), the NP40-soluble protein abundance stood at 1.03 ± 0.033.

In the case of PLXNA1 (UniProt Q9UIW2), the NP40-soluble protein abundance is 0.987 ± 0.0089.

For the target UniProt Q9ULL5-3, the NP40-soluble protein abundance was 1.05 ± 0.037.

For UniProt Q9UL18, the NP40-soluble protein abundance stood at 1.028 ± 0.005.

As for UniProt Q9UHD8 and related entries, the NP40-soluble protein abundance was determined as 0.994 ± 0.03.

Regarding UniProt Q9UNL4 and related entries, the NP40-soluble protein abundance came out at 1.01 ± 0.078.

For the target USP24 (UniProt Q9UPU5), the NP40-soluble protein abundance stood at 0.999 ± 0.022.

In the case of UniProt Q9UI12 and related entries, the NP40-soluble protein abundance was found to be 1 ± 0.028.

For the target MRPS16 (UniProt Q9Y3D3), the NP40-soluble protein abundance was 1.04 ± 0.025.

As to UniProt Q9UEE5, the NP40-soluble protein abundance worked out at 1.05 ± 0.058.

With UniProt Q9UJX5 and related entries, the NP40-soluble protein abundance came to 0.987 ± 0.029.

For the target UniProt Q9ULJ3 and related entries, the NP40-soluble protein abundance came to 0.9964 ± 0.0089.

On to UniProt Q9UBT2 and related entries, for which the NP40-soluble protein abundance stood at 1.03 ± 0.022.

Take UniProt Q9Y250 and related entries: the NP40-soluble protein abundance was 0.999 ± 0.024.

For the target UniProt Q9UKW4 and related entries, the NP40-soluble protein abundance was 1 ± 0.011.

UniProt Q9UBU8 and related entries: the NP40-soluble protein abundance came to 1.04 ± 0.02.
